One molecule from article PMC7366909 can be followed below.

Protein sequences, listed by entry. Tags and fused reporters are not part of them. Lines headed by an entry give the natural chain unless they say otherwise; changes in a name come on top. Chains listed by the source or under a name are the forms on record and can include a tag or linker.
CD44 (erythroid isoform CD44H) (human (endogenous in red cells)) (P16070, form named): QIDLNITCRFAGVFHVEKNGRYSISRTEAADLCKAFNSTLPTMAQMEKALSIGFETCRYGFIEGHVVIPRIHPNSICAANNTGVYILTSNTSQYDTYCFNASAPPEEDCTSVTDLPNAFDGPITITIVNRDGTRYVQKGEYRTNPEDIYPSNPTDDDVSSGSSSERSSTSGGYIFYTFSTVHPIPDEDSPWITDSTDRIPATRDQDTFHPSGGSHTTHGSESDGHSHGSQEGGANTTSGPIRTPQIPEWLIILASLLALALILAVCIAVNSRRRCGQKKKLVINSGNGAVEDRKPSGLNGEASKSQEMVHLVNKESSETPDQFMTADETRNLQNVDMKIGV

The target of test [1] is CD44 (erythroid isoform CD44H) (human (endogenous in red cells)) (UniProt P16070). The experiment in a line: co-IP; immunoprecipitation from normal MAM-positive red cell membranes with immunoblotting (anti-CD44 BRIC222 and KZ-1, anti-MAM eluates); which partner was precipitated is not stated. For orientation: A western blot detects proteins with antibodies after separation by electrophoresis.

For test [2] the target is unchanged. The experiment in a line: MAIEA (monoclonal antibody-specific immobilisation of erythrocyte antigens, ELISA format); intact red cells incubated with human anti-MAM and a mouse monoclonal antibody (consecutive 1 h incubations at 37 °C), lysed and solubilised in Triton-X buffer; complexes captured on goat anti-mouse IgG and detected with anti-human IgG peroxidase; adsorbance ratio of MAM-positive to MAM-negative cells above 2.0 is positive. On the technique in general: ELISA stands for enzyme-linked immunosorbent assay.

No constants are given. Whether binding was seen depends on the method and setting. For some assays here: In cells and extracts the contact can be indirect. Some results given as binding are weak or reduced against the parent protein; the word gives no strength.

B1: epithelial membrane protein 3 (EMP3) (protein, UniProt P54852 1-163)
chain: MSLLLLVVSALHILILILLFVATLDKSWWTLPGKESLNLWYDCTWNNDTKTWACSNVSENGWLKAVQVLMVLSLILCCLSFILFMFQLYTMRRGGLFYATGLCQLCTSVAVFTGALIYAIHAEEILEKHPRGGSFGYCFALAWVAFPLALVSGIIYIHLRKRE
As for B1, the binding result in test [1] and in test [2] was “binds” throughout.
